Measured values reported in patent US20050026285A1 (Harvard, published 2005).
These are yes or no findings as the source states them, for the method shown. In cells and extracts the contact can be indirect. A result given as binding can be weak or reduced; the word gives no strength. Where a sequence is shown, tags or fusion partners need not be part of it.

What was measured:
[1] = target: FLAG-tagged TRAF2 (87-501); assay: coimmunoprecipitation from 293T cells, anti-MYC IP, anti-FLAG blot
FLAG-tagged TRAF1 = assay: as above
FLAG-tagged TRAF6 [2] = assay: as above
FLAG-tagged TRAF2 [3] = assay: as above
FLAG-tagged TRAF3 [4] = assay: as above
FLAG-tagged TRAF4 [5] = assay: as above
FLAG-tagged TRAF6 [6] = assay: coimmunoprecipitation from 293T cells at 300 mM instead of 137 mM NaCl
FLAG-tagged TRAF3 [7] = assay: as above
FLAG-tagged TRAF4 [8] = assay: as above
[9] = target: FLAG-tagged TRAF2 (87-501); assay: coimmunoprecipitation from 293T cells
c-Jun/c-Fos AP-1 complex = assay: coimmunoprecipitation from 293T cells, anti-myc IP
FLAG-tagged TRAF6 [10] = assay: summary of the coimmunoprecipitation experiments of Example 1
FLAG-tagged TRAF2 [11] = assay: as above

Measured: binding

B1: MYC-tagged KRC tr (KRC amino acids 204-1055 with N-terminal myc epitope tag) (protein, not shown: small tags and cut ends)
chain: PSVLQKHIRSHTGERPYPCGPCGFSFKTKSNLYKHRKSHAHRIKAGLASGMGGEMYPHGLEMERIPGEEFEEPTEGESTDSEEETSATSGHPAELSPRPKQPLLSSGLYSSGSHSSSHERCSLSQSSTAQSLEDPPPFVEPSSEHPLSHKPEDTHTIKQKLALRLSERKKVIDEQAFLSPGSKGSTESGYFSRSESAEQQVSPPNTNAKSYAEIIFGKCGRIGQRTAMLTATSTQPLLPLSTEDKPSLVPLSVPRTQVIEHITKLITINEAVVDTSEIDSVKPRRSSLSRRSSMESPKSSLYREPLSSHSEKTKPEQSLLSLQHPPSTAPPVPLLRSHSMPSAACTISTPHHPFRGSYSFDDHITDSEALSRSSHVFTSHPRMLKPQPAIELPLGGEYSSEEPGPSSKDTASKPSDEVEPKESELTKKTKKGLKTKGVIYECNICGARYKKRDNYEAHKKYYCSELQIAKPISAGTHTSPEAEKSQIEHEPWSQMMHYKLGTTLELTPLRKRRKEKSLGDEEEPPAFESTKSQFGSPGPSDAARNLPLESTKSPAEPSKSVPSLEGPTGFQPRTPKPGSGSESGKERRTTSKEISVIQHTSSFEKSDSLEQPSGLEGEDKPLAQFPSPPPAPHGRSAHSLQPKLVRQPNIQVPEILVTEEPDRPDTEPEPPPKEPEKTEEFQWPQRSQTLAQLPAEKAPPKKKRLRLAEMAQSSGESSFESSVPLSRSPSQESNVSLSGSSRSASFERDDHGKAEAPDPSSDMRPKPLGTHMLTVPSHHPHAREMRRSASEQSPNVSHSAHMTETRSKSFDYGSLSLTGPSAPAPVAPPAGEAPPERRKCFLVRSPSLSRPP
binds: all assays above
